Experimental data taken from doi:10.1101/2022.03.09.482262.
These are yes or no findings as the source states them, for the method shown. Some entries that bind do so weakly or less than the wild type.

Target: POPEYE (PYE) (Arabidopsis thaliana) (UniProt Q9SN74)
Experiment: two-hybrid

B1: POPEYE (PYE) (protein, UniProt Q9SN74 1-240)
chain: MVSKTPSTSSDEANATADERCRKGKVPKRINKAVRERLKREHLNELFIELADTLELNQQNSGKASILCEATRFLKDVFGQIESLRKEHASLLSESSYVTTEKNELKEETSVLETEISKLQNEIEARANQSKPDLNTSPAPEYHHHHYQQQHPERVSQFPGLPIFQGPGFQQSATTLHPPATVLVLPIQPDPQTQDISEMTQAQQPLMFNSSNVSKPCPRYASAADSWSSRLLGERLKASE
binding: binds
